Data taken from PubChem BioAssay AID1487 (National Center for Advancing Translational Sciences (NCATS), 2009).
“And” between values parts separate entries of the source, which are not always exact repeats. Equal values may be shown once. Some of the results follow. These are further read-outs of the screen, such as a control signal, another cell line or another target. No call is given for them. The list favours compounds with an active or inconclusive main result. Potencies come from curve fits of mixed quality, noted in brackets.

Assay: qHTS Assay for Modulators of Lamin A Splicing
Conditions: HeLa LMNA splicing GFP/RFP minigene ratio, 48 h
Outline: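 Read-out is the ratio of GFP to DsRed2 object intensity, acquired by 488 nm laser-scanning cytometry on HeLa lamin A-EGFP minigene reporter cells. Compound incubation 48 hrs at 37 °C in Opti-MEM with 2% FBS; DMSO 0.5% final.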

[1] = measured here: RFP viability control channel
[2] = measured here: GFP splicing reporter channel

Row | SMILES | AC50 [1] | AC50 [2]
1 | CCCCCc1ccc(CC(=O)Nn2c(C)nc3ccccc3c2=O)cc1 | 8.91 µM [rising, partial curve] | –
2 | COc1ccccc1N1CCN(C(=O)C2CCN(S(=O)(=O)c3ccc(C)cc3)CC2)CC1 | 0.178 µM [falling, full curve, poor fit] | –
3 | Cc1ccc(-n2cccn2)c(CN2CCCC(CNC(=O)c3ccc(F)cc3)C2)c1 (stereo not drawn) | – | 28.2 µM [falling, single point]
4 | CC(NC(=O)Nc1ccccc1O)(C(F)(F)F)C(F)(F)F | 11.2 µM [rising, partial curve] | 7.08 µM [rising, partial curve]
5 | CC1CCC(=NNC(=O)Cc2cccn2C)CC1 (stereo not drawn) | – | 5.01 µM [rising, partial curve, poor fit]
6 | O=[N+]([O-])c1ccc(-c2c(O)c3ccccc3c3nc4ccccc4nc23)cc1 | 22.4 µM [falling, partial curve, poor fit] | 11.2 µM [falling, partial curve]
7 | c1ccc(N2CCN(c3ncnc4[nH]ncc34)CC2)cc1 | 10 µM [rising, single point] | –
8 | COc1cc(OC)c(NC(=O)NCc2ccc3c(c2)CCN3C(C)=O)cc1Cl | 3.16 µM [rising, partial curve] | 3.55 µM [rising, full curve]
9 | Cc1cccc(N2CCN(C(=O)c3ccc4nc[nH]c4c3)CC2)c1C | 17.8 µM [rising, single point] | 10 µM [rising, single point]
10 | CCOC(=O)c1cnn(-c2nc3sc4c(c3c(=O)[nH]2)CCCC4)c1N | 1.26 µM [rising, full curve] | –
11 | CCCCCNC(=O)C1CCC(Cn2c(=O)c3sccc3n(CC(=O)N3CCCC3)c2=O)CC1 (stereo not drawn) | 0.00316 µM [falling, full curve, poor fit] | –
12 | O=c1c2ccc([N+](=O)[O-])cc2ncn1CCOc1ccc(Cl)cc1 | 0.0891 µM [rising, full curve, poor fit] | 0.501 µM [rising, full curve]
13 | CCCCOC(=O)Nc1ccccc1C(=O)N1CCCC1 | – | 35.5 µM [rising, single point]
14 | COCCn1c(SCC(=O)Nc2ccc(Cl)c(S(=O)(=O)N(C)C)c2)nc2ccccc21 | 11.2 µM [rising, single point] | –
15 | Cc1ccc(NC(=O)CSc2nnc(C3CCCCC3)n2N)cc1F | 17.8 µM [rising, single point] | 17.8 µM [rising, single point]
16 | O=C(Nc1ccccc1)OC[C@H](CN1CCCCC1)OC(=O)Nc1ccccc1 | 5.62 µM [rising, partial curve, poor fit] | 12.6 µM [rising, single point]
17 | Cc1ccc(NC(=O)c2cccc(OCc3c(C)noc3C)c2)cc1S(=O)(=O)Nc1ccccc1Cl | 20 µM [rising, partial curve] | 12.6 µM [rising, partial curve, poor fit]
18 | CC(C)Oc1ccc(C(CC(=O)O)c2ccc(F)cc2)cc1 (stereo not drawn) | – | 0.0224 µM [rising, full curve, poor fit]
19 | CC(C)CCn1nc(C(=O)Nc2nc3c(s2)CCCC3)c2ccccc2c1=O | 14.1 µM [rising, single point] | –
20 | Cc1ccc(S(=O)(=O)N2CCC(=O)N(C(COCc3ccc(C(F)(F)F)cc3)C(C)C)CC2)cc1 (stereo not drawn) | 35.5 µM [rising, partial curve, poor fit] | 31.6 µM [rising, single point]
21 | O=C(Nc1nccs1)c1ccc(COc2ccccc2Br)o1 | 28.2 µM [rising, single point] | –
22 | O=C(CSc1n[nH]c(-c2ccccc2)n1)c1ccc(O)c(O)c1 | 25.1 µM [rising, single point] | 11.2 µM [rising, single point]
23 | COc1ccc(C2=NN(C(=O)CSc3nnc(-c4ccccc4F)o3)C(c3ccco3)C2)cc1 (stereo not drawn) | 14.1 µM [rising, single point] | –
24 | Cc1ccc2ncnc(NCCCCCC(=O)O)c2c1 | 0.0224 µM [falling, full curve] | –
25 | O=C(C1CCCN(S(=O)(=O)c2ccccc2)C1)N1CCN(c2ncccn2)CC1 (stereo not drawn) | 35.5 µM [rising, single point] | –
26 | Cc1ccc(C(=O)N/N=c2\sc3ccccc3n2C)cc1 | 0.0708 µM [rising, partial curve] | 0.0355 µM [rising, full curve, poor fit]
27 | O=C(CCC1N=C2c3ccccc3N=C(SCc3ccc(F)cc3)N2C1=O)NCCc1ccccc1 (stereo not drawn) | 11.2 µM [falling, partial curve] | 12.6 µM [falling, partial curve]

Row | SMILES | AC50 [1] | AC50 [2]
28 | CCOC(=O)C1CCN(c2cc(C)nc3ccc(OC)cc23)CC1 | – | 10 µM [rising, partial curve, poor fit]
29 | Cc1ccc(NC(=O)CC2SC(=NCC3CCCO3)NC2=O)cc1Cl (stereo not drawn) | 0.398 µM [rising, full curve] | –
30 | CN(Cc1c(F)cccc1Cl)c1ccc(S(=O)(=O)N2CCOCC2)cn1 | 7.08 µM [rising, partial curve] | 7.08 µM [rising, partial curve]
31 | COc1cccc(OC)c1OCCNCC1COc2ccccc2O1 (stereo not drawn) | 5.62 µM [falling, single point] | 5.62 µM [falling, partial curve, poor fit]
32 | CCOc1ccc2ccccc2c1CNc1nnnn1C | 12.6 µM [falling, partial curve] | –
33 | Cc1ccc(S(=O)(=O)Nc2ccc(N3CCOCC3)cc2)cc1[N+](=O)[O-] | 2.51 µM [falling, partial curve, poor fit] | 0.00316 µM [falling, full curve, poor fit]
34 | O=C1NCN(c2ccccc2)C12CCN(CCCC(c1ccc(F)cc1)c1ccc(F)cc1)CC2 | 1 µM [falling, partial curve] and 25.1 µM [falling, partial curve] | 1.12 µM [falling, partial curve] and 20 µM [falling, partial curve]
35 | C=CC(=O)Nc1ccc(Br)cc1 | 11.2 µM [rising, single point] | –
36 | COc1ccc(OC(C)C(=O)Nc2ccc([N+](=O)[O-])cc2)cc1 (stereo not drawn) | 1.58 µM [rising, single point] | 1.78 µM [rising, partial curve]
37 | Oc1ccc2ccccc2c1N=Nc1ccccn1 | 17.8 µM [rising, partial curve] | 2.82 µM [rising, full curve, poor fit]
38 | Cn1c(SCC(=O)N2CCCC2)nc2ccccc21 | 3.16 µM [falling, partial curve, poor fit] | 0.00316 µM [falling, full curve, poor fit]
39 | O=C(COc1ccc(Cl)cc1)N1CCN(C(=O)c2cccs2)CC1 | – | 0.00631 µM [rising, full curve, poor fit]
40 | CCOc1ccc(-c2nc(N)ncc2-c2ccccc2)c(O)c1 | 15.8 µM [rising, single point] | –
41 | COc1ccc(OC)c(NC(=O)CSc2ccc3ccccc3c2)c1 | 17.8 µM [rising, single point] | 14.1 µM [rising, single point]
42 | O=C(NCc1cccnc1)c1ccc(NC(=O)c2cccc([N+](=O)[O-])c2)cc1 | – | 5.62 µM [rising, single point]
43 | Cc1cc2c(c(SCC(=O)Nc3ccc(C)c(C)c3)n1)C(=O)OC2 | 7.94 µM [falling, partial curve] | –
44 | COc1cccc(/C=N/NC(=O)CNC(=O)C2COc3ccccc3O2)c1O (stereo not drawn) | 31.6 µM [rising, single point] | –
45 | COc1ccc2ncc(S(=O)(=O)c3ccccc3)c(N3CCN(c4ccccc4)CC3)c2c1 | – | 31.6 µM [rising, single point]
46 | CC(C)(C)NS(=O)(=O)c1ccc(Oc2ncc(C(F)(F)F)cc2Cl)cc1 | 15.8 µM [rising, single point] | –
47 | N#Cc1cccc(-c2nc(NCCN3CCOCC3)c3ccccc3n2)c1 | – | 10 µM [falling, partial curve, poor fit]
48 | CSc1nnc2c3ccccc3n(CCc3ccccc3)c2n1 | 2.82 µM [rising, full curve] | 3.55 µM [rising, full curve, poor fit]
49 | O=C(NN1CCCCC1)c1cccc2ccccc12 | 0.398 µM [falling, partial curve] | 35.5 µM [falling, partial curve, poor fit]
50 | O=C(c1cccs1)N1CCN(c2nnc(-c3ccccc3)c3ccccc23)CC1 | 10 µM [falling, single point] | –
51 | O=S1(=O)CC/C(=N\Nc2ccccc2)c2ccsc21 | 3.55 µM [rising, single point] | 10 µM [rising, single point]
52 | CC(=O)C1=C(C)NC(SCC(=O)c2ccc(-c3ccccc3)cc2)=C(C#N)C1c1cccnc1 (stereo not drawn) | 35.5 µM [falling, single point] | 14.1 µM [falling, single point]
53 | Cn1c2ccccc2c2nnc(SCC(=O)NCc3ccoc3)nc21 | 10 µM [rising, partial curve] | –
54 | COCc1ccc(C(=O)N2CCCC(CCC(=O)NCc3ccccc3F)C2)o1 (stereo not drawn) | 12.6 µM [falling, single point] | –

Record cards, as listed above. Values in the order: AC50 [1]	AC50 [2]
CC(NC(=O)Nc1ccccc1O)(C(F)(F)F)C(F)(F)F in the list: 11.2 µM [rising, partial curve]	7.08 µM [rising, partial curve]
CCOC(=O)c1cnn(-c2nc3sc4c(c3c(=O)[nH]2)CCCC4)c1N in the list: 1.26 µM [rising, full curve]	–
O=C(NN1CCCCC1)c1cccc2ccccc12 in the list: 0.398 µM [falling, partial curve]	35.5 µM [falling, partial curve, poor fit]
